Experimental findings from PMC11773481 are described below.

Sequences of proteins named here, by UniProt entry; tags and fusion partners are left off.
UniProt Q14145: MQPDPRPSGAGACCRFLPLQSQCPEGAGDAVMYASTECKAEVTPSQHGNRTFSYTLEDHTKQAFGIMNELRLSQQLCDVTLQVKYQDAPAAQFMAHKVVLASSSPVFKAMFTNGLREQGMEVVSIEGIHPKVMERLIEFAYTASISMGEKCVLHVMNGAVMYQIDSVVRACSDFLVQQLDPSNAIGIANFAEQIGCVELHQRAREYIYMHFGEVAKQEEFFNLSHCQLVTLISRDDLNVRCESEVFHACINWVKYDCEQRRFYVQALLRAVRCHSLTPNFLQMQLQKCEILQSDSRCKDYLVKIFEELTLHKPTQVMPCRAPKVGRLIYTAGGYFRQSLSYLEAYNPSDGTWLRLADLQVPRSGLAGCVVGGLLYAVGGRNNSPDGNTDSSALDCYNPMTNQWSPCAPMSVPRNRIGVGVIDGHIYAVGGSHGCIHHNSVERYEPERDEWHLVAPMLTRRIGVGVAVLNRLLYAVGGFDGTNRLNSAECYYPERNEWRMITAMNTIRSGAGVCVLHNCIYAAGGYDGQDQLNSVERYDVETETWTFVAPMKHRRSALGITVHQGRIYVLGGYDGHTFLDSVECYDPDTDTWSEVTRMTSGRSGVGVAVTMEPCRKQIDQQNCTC

No constants are given. Whether binding was seen depends on the method and setting. In cells and extracts the contact can be indirect. Some results given as binding are weak or reduced against the parent protein; the word gives no strength.

The target of the assay is FLAG-tagged full-length (FL) KEAP1 (UniProt Q14145). The assay can be described thus: co-IP; proteins transiently expressed in HEK 293T cells (with endogenous DPP8/9), anti-FLAG agarose IP, immunoblot; in Figure 6C cells treated with H2O2 (100, 250, 500 μΜ) for 3 h. (In western blotting, separated proteins are transferred to a membrane and probed.)

B1: endogenous DPP3 (enzyme, UniProt Q9NY33 1-737)
chain: MADTQYILPNDIGVSSLDCREAFRLLSPTERLYAYHLSRAAWYGGLAVLLQTSPEAPYIYALLSRLFRAQDPDQLRQHALAEGLTEEEYQAFLVYAAGVYSNMGNYKSFGDTKFVPNLPKEKLERVILGSEAAQQHPEEVRGLWQTCGELMFSLEPRLRHLGLGKEGITTYFSGNCTMEDAKLAQDFLDSQNLSAYNTRLFKEVDGEGKPYYEVRLASVLGSEPSLDSEVTSKLKSYEFRGSPFQVTRGDYAPILQKVVEQLEKAKAYAANSHQGQMLAQYIESFTQGSIEAHKRGSRFWIQDKGPIVESYIGFIESYRDPFGSRGEFEGFVAVVNKAMSAKFERLVASAEQLLKELPWPPTFEKDKFLTPDFTSLDVLTFAGSGIPAGINIPNYDDLRQTEGFKNVSLGNVLAVAYATQREKLTFLEEDDKDLYILWKGPSFDVQVGLHELLGHGSGKLFVQDEKGAFNFDQETVINPETGEQIQSWYRSGETWDSKFSTIASSYEECRAESVGLYLCLHPQVLEIFGFEGADAEDVIYVNWLNMVRAGLLALEFYTPEAFNWRQAHMQARFVILRVLLEAGEGLVTITPTTGSDGRPDARVRLDRSKIRSVGKPALERFLRRLQVLKSTGDVAGGRALYEGYATVTDAPPECFLTLRDTVLLRKESRKLIVQPNTRLEGSDVQLLEYEASAAGLIRSFSERFPEDGPELEEILTQLATADARFWKGPSEAPSGQA
Take B1: the binding result is “binds”.
